Assays:
platelet-derived EVs = assay: Labelling of extracellular vesicles with dyes (Superose 6 HPLC, UV and FLD detection); settings: EV + 2 μM dye, 1 hr 37° C.; void peak area, 214 nm absorption
Description: Labelling of extracellular vesicles (EVs) with dyes 1-10 was performed according to the following procedure. 20 μL of platelet-derived EVs were incubated in HPLC vials with or without each dye at a final concentration of 2 μM dye, the dye stock solution being made up in water. For negative controls, an equivalent volume of the diluent solution was added to the EV solution. The sample was mixed gently. Each sample was subsequently incubated for 1 hr at 37° C. Samples were transferred and stored in the autosampler set at 4° C. A batch table was setup that injected unlabelled EVs prior to labelled EVs. A blank injection was run after each labelled EV experiment to ensure there was no carryover. 15 μL of each sample was injected onto a Superose 6 Increase column (3.2/300) from Cytiva. The flow rate was set at 0.15 mL min* The Shimadzu BioHPLC was run in isocratic mode with Buffer A: 1× PBS (phosphate-buffered saline), pH 7.4, 100 nm filtered. The column oven temperature was set at 30° C. Total run duration was 30 min. Data was collected using two detectors. The PDA (UV detector) was set to scan from 190-800 nm and a channel of the FLD (fluorescence detector) was set at 562 nm/583 nm (Ex/Em). Titration experiments were conducted to confirm that excess dye was removed. The areas of the void peaks from the 214 nm absorption and the 583 nm emission were calculated by the LabSolutions software using the manual integration function. To normalise the fluorescent signal, the total fluorescent area was divided by the UV 214 nm area. This ratio can be used to rank each dye, with higher ratios indicative of greater incorporation.

MSC-EVs = assay: Dye labelling of MSC-EV preparations analysed by imaging flow cytometry (IFCM)
Description: MSC-EVs were prepared form human platelet lysate containing MSC-conditioned media by polyethylene glycol 6000 precipitation followed by ultracentrifugation, as described previously (Borger, V. et al, 2020, Scaled Isolation of Mesenchymal Stem/Stromal Cell-Derived Extracellular Vesicles. Curr Protoc Stem Cell Biol 55, e128; Kordelas et al., 2014, MSC-derived exosomes: a novel tool to treat therapy-refractory graft-versus-host disease. Leukemia 28, 970-973; Ludwig et al., 2018, Precipitation with polyethylene glycol followed by washing and pelleting by ultracentrifugation enriches extracellular vesicles from tissue culture supernatants in small and large scales. J Extracell Vesicles 7, 1528109). Conditioned media were harvested every 48 h. Obtained MSC-EV preparations were diluted in NaCl-HEPES buffer (Sigma-Aldrich, Taufkirchen, Germany) such that 1 mL of final samples contained the preparation yield of the conditioned media of approximately 4.0×10^7 cells.
The staining with CFSE (Thermo Fisher Scientific, Darmstadt, Germany) was based on the manufacturer's protocol. Slight modifications were required to reduce the signal from unbound CFSE. Briefly, the CFSE stock solution was diluted to a working solution of 10 μM CFSE. The solution was centrifuged three times for 10 min at 17,000 × g. Subsequently, 25 μL of MSC-EV preparations, corresponding to the amount of EVs derived from 1×10^6 MSCs, were incubated with the centrifuged CFSE solution for 20 min at 37° C. The sample was diluted 1:20 to a final volume of 1 mL prior to analysis.
The staining of MSC-EV preparations with Calcein AM followed the manufacturer's instructions. Briefly, 25 μL of MSC-EV preparations were incubated with 25 μL of a 20 μM solution of Calcein AM (Thermo Fisher Scientific) for 40 min at 37° C. The sample was diluted 1:20 to a final volume of 1 mL to reduce background noise, avoiding the requirement of a washing step.
The staining of MSC-EV preparations with BODIPY-TR-Ceramide followed the manufacturer's instructions. […]

NHDF cells = assay: Removing excess dye with 40K MWCO Zeba Spin Desalting Column; parameters: species or system human; settings: for cell staining after Zeba spin column (FIG. 5): 2 μM dye in 1× PBS, normalised to PLX+dye 2

## CCCCCCCCCCCCCCCCCCN(C)C(=O)c1ccccc1-c1c2ccc(=[N+](CC)CC)cc-2oc2cc(N(CC)CC)ccc12.[Cl-] [Dye 2, Rhodamine B N-methyloctadecylamide]
platelet-derived EVs
  UV area (EV + dye): 554454
MSC-EVs; dye + MSC-EVs
  light scattering (SSC) of objects specifically labelled in MSC-EV preparations: reflect those of sEVs
MSC-EVs; dye + MSC-EVs + detergent NP40
  labelled objects after NP40 treatment: disappeared following NP40 treatment
MSC-EVs; dye in NaCl-HEPES buffer, no EV preparation
  objects in dye only solution (FIG. 8): contain no objects
NHDF cells; 0.02 μM dye
  Fluorescence - Zeba column: 1151 ± 14
  Fluorescence - no Zeba column: 1130 ± 20
NHDF cells; 0.2 μM dye
  Fluorescence - Zeba column: 1206 ± 20
  Fluorescence - no Zeba column: 1829 ± 32
NHDF cells; 2 μM dye
  Fluorescence - Zeba column: 1529 ± 14
  Fluorescence - no Zeba column: 10299 ± 132

## CCCCCCCCCCCCCCCCN(C)C(=O)c1ccccc1-c1c2ccc(=[N+](CC)CC)cc-2oc2cc(N(CC)CC)ccc12.[Cl-] [Dye 1, Rhodamine B N-methylhexadecylamide]
platelet-derived EVs
  UV area (EV + dye): 1092869

## CCCCCCCCCCCCCCCCCCN(CCOC)C(=O)c1ccccc1-c1c2ccc(=[N+](CC)CC)cc-2oc2cc(N(CC)CC)ccc12.[Cl-] [Dye 8, Rhodamine B N-ethyl methyl ether octadecanamide]
platelet-derived EVs
  UV area (EV + dye): 1173725

## CCCCCCCCCCCCCCCCCCCCN(CCOC)C(=O)c1ccccc1-c1c2ccc(=[N+](CC)CC)cc-2oc2cc(N(CC)CC)ccc12.[Cl-] [Dye 10, Rhodamine B N-ethyl methyl ether icosaneamide]
platelet-derived EVs
  UV area (EV + dye): 1106893

## CCCCCCCCCCCCCCCCCCCCCCN(C)C(=O)c1ccccc1-c1c2ccc(=[N+](CC)CC)cc-2oc2cc(N(CC)CC)ccc12.[Cl-] [Dye 4]
platelet-derived EVs
  UV area (EV + dye): 913937

## CCCCCCCC/C=C\CCCCCCCCN(C)C(=O)c1ccccc1-c1c2ccc(=[N+](CC)CC)cc-2oc2cc(N(CC)CC)ccc12 [Dye 17, Rhodamine B N-methyloleylamide]
NHDF cells
  cell staining after Zeba spin column (FIG. 5): no cell staining was observed

## CCCCCCCCCCCCCCCCCCN(CCO)C(=O)c1ccccc1-c1c2ccc(=[N+](CC)CC)cc-2oc2cc(N(CC)CC)ccc12.[Cl-] [Dye 9, Rhodamine B N-(2-hydroxyethyl)octadecanamide]
platelet-derived EVs
  UV area (EV + dye): 1367007

## CCCCCCCCCCCCCCCCN(CCOC)C(=O)c1ccccc1-c1c2ccc(=[N+](CC)CC)cc-2oc2cc(N(CC)CC)ccc12.[Cl-] [Dye 7, Rhodamine B N-ethyl methyl ether hexadecanamide]
platelet-derived EVs
  UV area (EV + dye): 1056319

## CCCCCCCCCCCCCCN(CCCCC)C(=O)c1ccccc1-c1c2ccc(=[N+](CC)CC)cc-2oc2cc(N(CC)CC)ccc12.[Cl-] [Dye 5, Rhodamine B N-pentyltetradecanamide]
platelet-derived EVs
  UV area (EV + dye): 1918454

## CCCCCCCCCCCCCCCCCCCCN(C)C(=O)c1ccccc1-c1c2ccc(=[N+](CC)CC)cc-2oc2cc(N(CC)CC)ccc12.[Cl-] [Dye 3, Rhodamine B N-methylicosaneamide]
platelet-derived EVs
  UV area (EV + dye): 1177448

## CCCCCCCC/C=C/CCCCCCCCN(C)C(=O)c1ccccc1-c1c2ccc(=[N+](CC)CC)cc-2oc2cc(N(CC)CC)ccc12 [Dye 18, Rhodamine B N-methylelaidylamide]
NHDF cells
  cell staining after Zeba spin column (FIG. 5): no cell staining was observed

## CCCCCCCCCCCCCCCCCCN(CCCCC)C(=O)c1ccccc1-c1c2ccc(=[N+](CC)CC)cc-2oc2cc(N(CC)CC)ccc12.[Cl-] [Dye 6, Rhodamine B N-pentyloctadecanamide]
platelet-derived EVs
  UV area (EV + dye): 1803632

— US20240093034A1, “FLUORESCENT DYES” (EXOPHARM LIMITED, priority 2020, published 2024)
